PubChem BioAssay AID1053208, Peter MacCallum Cancer Centre | 2014

Test: 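Genes whose silencing cuts survival of bone tumour cells only with doxorubicin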 (primary screen)
System: mouse osteosarcoma cells, early-passage culture from an engineered mouse model of fibroblastic bone tumour
Knock-down reagent: siRNA pool against mouse genes, 40 nM
Timing: about 120 h (48 h before drug, then 72 h with drug)
Treatment: doxorubicin 100 nM for 72 h, roughly 30-40% inhibitory dose
Measured: 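Viability read as ATP luminescence after 72 h of 100 nM doxorubicin or none, duplicate wells averaged, scaled to non-targeting siRNA, then expressed as robust z-scores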
Scale: viability z-score with doxorubicin and doxorubicin viability vs non-targeting: higher = more viable cells under doxorubicin; viability z-score without drug: higher = more viable cells with knock-down alone; z-score of drug to no-drug ratio: higher = less drug sensitisation by knock-down
Active means: 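Called active if knock-down leaves viability unchanged without drug (z within -2 to 2) but lowers it with doxorubicin (z at or under -2)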
Here is an unselected part of about 17,000 reagents tested. 788 of all reagents (4.7%) count as active. 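Calls rest on z-score classes alone; an extra cut-off of viability at most 70% of control was not applied to them.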 The numbers tell different reagents against one gene apart.

gene symbol | reagent | combined z-score class | viability z-score with doxorubicin | viability z-score without drug | z-score of drug to no-drug ratio | doxorubicin viability vs non-targeting | outcome
Cplx1 (complexin 1) | 1 | no change with or without drug | 1.46 | 0.34 | 1.35 | 1.07 | inactive
Exosc3 (exosome component 3) | 1 | no change with or without drug | 0.67 | 0.84 | 0.22 | 1 | inactive
Smarcd3 (SWI/SNF related BAF chromatin remodeling complex subunit D3) | 1 | no change with or without drug | -0.34 | 0.17 | -0.34 | 0.91 | inactive
Nudt1 (nudix hydrolase 1) | 1 | no change with or without drug | 0 | -0.17 | 0.22 | 0.94 | inactive
Dipk1b (divergent protein kinase domain 1B) | 1 | no change with or without drug | 0.22 | 0.17 | 0.22 | 0.96 | inactive
Topbp1 (topoisomerase (DNA) II binding protein 1) | 1 | low cell count with doxorubicin only | -5.06 | -0.51 | -5.06 | 0.49 | active
Izumo1r (IZUMO1 receptor, JUNO) | 1 | no change with or without drug | 0.45 | 0.84 | 0 | 0.98 | inactive
Kif12 (kinesin family member 12) | 1 | no change with or without drug | -0.9 | -0.84 | -0.22 | 0.86 | inactive
4932414N04Rik (RIKEN cDNA 4932414N04 gene) | 1 | no change with or without drug | 0.45 | -0.34 | 0.79 | 0.98 | inactive
Inhbe (inhibin beta-E) | 1 | no change with or without drug | -1.24 | -1.18 | -0.45 | 0.83 | inactive
Gabrb3 | 1 | no change with or without drug | -0.79 | -0.17 | -0.56 | 0.87 | inactive
Pde6h (phosphodiesterase 6H, cGMP-specific, cone, gamma) | 1 | no change with or without drug | -0.22 | -0.51 | 0.22 | 0.92 | inactive
Efcab6 (EF-hand calcium binding domain 6) | 1 | no change with or without drug | -0.45 | 0.84 | -0.9 | 0.9 | inactive
Tdg (thymine DNA glycosylase) | 1 | no change with or without drug | 0.9 | 0.34 | 0.79 | 1.02 | inactive
Lkaaear1 (LKAAEAR motif containing 1 (IKAAEAR murine motif)) | 1 | no change with or without drug | -0.9 | 1.18 | -1.57 | 0.86 | inactive
Fbxw7 (F-box and WD-40 domain protein 7) | 1 | no change with or without drug | -1.57 | 0.84 | -2.02 | 0.8 | inactive
Narf (nuclear prelamin A recognition factor) | 1 | no change with or without drug | 0.22 | 1.18 | -0.45 | 0.96 | inactive
Abca8a (ATP-binding cassette, sub-family A member 8a) | 1 | no change with or without drug | 0.45 | 0.51 | 0.22 | 0.98 | inactive
Hirip3 (HIRA interacting protein 3) | 1 | no change with or without drug | -0.67 | -0.84 | 0 | 0.88 | inactive
Cyp2j5 (cytochrome P450, family 2, subfamily j, polypeptide 5) | 1 | no change with or without drug | -0.56 | 1.01 | -1.12 | 0.89 | inactive
Ss18l2 (SS18, nBAF chromatin remodeling complex subunit like 2) | 1 | no change with or without drug | 0.67 | 1.52 | -0.22 | 1 | inactive
Prdm8 (PR domain containing 8) | 1 | no change with or without drug | 0.79 | -0.84 | 1.57 | 1.01 | inactive

Laid out differently: 3 of the entries above.
Abca8a (ATP-binding cassette, sub-family A member 8a): combined z-score class = no change with or without drug; viability z-score with doxorubicin = 0.45; viability z-score without drug = 0.51; z-score of drug to no-drug ratio = 0.22; doxorubicin viability vs non-targeting = 0.98; outcome = inactive
Hirip3 (HIRA interacting protein 3): combined z-score class = no change with or without drug; viability z-score with doxorubicin = -0.67; viability z-score without drug = -0.84; z-score of drug to no-drug ratio = 0; doxorubicin viability vs non-targeting = 0.88; outcome = inactive
Cyp2j5 (cytochrome P450, family 2, subfamily j, polypeptide 5): combined z-score class = no change with or without drug; viability z-score with doxorubicin = -0.56; viability z-score without drug = 1.01; z-score of drug to no-drug ratio = -1.12; doxorubicin viability vs non-targeting = 0.89; outcome = inactive

Next results follow:
gene symbol | reagent | combined z-score class | viability z-score with doxorubicin | viability z-score without drug | z-score of drug to no-drug ratio | doxorubicin viability vs non-targeting | outcome
Esm1 (endothelial cell-specific molecule 1) | 1 | no change with or without drug | -1.24 | -0.84 | -0.67 | 0.83 | inactive
Pced1b (PC-esterase domain containing 1B) | 1 | low cell count with doxorubicin only | -2.02 | -0.51 | -1.69 | 0.76 | active
Trnt1 (tRNA nucleotidyl transferase, CCA-adding, 1) | 1 | no change with or without drug | 0.67 | -0.17 | 0.9 | 1 | inactive
Supt16 (SPT16, facilitates chromatin remodeling subunit) | 1 | low cell count with doxorubicin only | -3.37 | -1.69 | -2.59 | 0.64 | active
Snhg16 (small nucleolar RNA host gene 16) | 1 | no change with or without drug | -1.35 | -0.17 | -1.24 | 0.82 | inactive
Or6c69c (olfactory receptor family 6 subfamily C member 69C) | 1 | no change with or without drug | -1.8 | 0.34 | -2.02 | 0.78 | inactive
Tbc1d23 (TBC1 domain family, member 23) | 1 | high cell count without drug only | -1.35 | 2.36 | -2.59 | 0.82 | inactive
Paral1 (PPARG activating RBM14 associated lncRNA 1) | 1 | no change with or without drug | -0.34 | 0.17 | -0.34 | 0.91 | inactive
Cytip (cytohesin 1 interacting protein) | 1 | no change with or without drug | -0.22 | 0.51 | -0.45 | 0.92 | inactive
H2-Q5 (histocompatibility 2, Q region locus 5) | 1 | no change with or without drug | -0.22 | -0.67 | 0.34 | 0.92 | inactive
Nosip (nitric oxide synthase interacting protein) | 1 | no change with or without drug | -1.8 | 0.51 | -2.02 | 0.78 | inactive
Alkbh3 (alkB homolog 3, alpha-ketoglutarate-dependent dioxygenase) | 1 | low cell count with doxorubicin only | -2.25 | -1.85 | -1.12 | 0.74 | active
Krtcap2 (keratinocyte associated protein 2) | 1 | no change with or without drug | -1.24 | -1.18 | -0.45 | 0.83 | inactive
Slc6a18 | 1 | no change with or without drug | 0.56 | 1.18 | -0.11 | 0.99 | inactive
Or4l15 (olfactory receptor family 4 subfamily L member 15) | 1 | no change with or without drug | -1.12 | -0.67 | -0.67 | 0.84 | inactive
Pcsk6 (proprotein convertase subtilisin/kexin type 6) | 1 | no change with or without drug | -0.11 | -1.52 | 1.12 | 0.93 | inactive
Pdcd2 (programmed cell death 2) | 1 | no change with or without drug | 1.24 | 0.17 | 1.24 | 1.05 | inactive
Rell1 (RELT-like 1) | 1 | no change with or without drug | -0.22 | 1.69 | -1.12 | 0.92 | inactive
Or11a4 (olfactory receptor family 11 subfamily A member 4) | 1 | no change with or without drug | -1.57 | -1.52 | -0.56 | 0.8 | inactive
Setd1a (SET domain containing 1A) | 1 | no change with or without drug | 0.9 | 0.84 | 0.45 | 1.02 | inactive
Setd1a (SET domain containing 1A) | 2 | no change with or without drug | 1.01 | 0.51 | 0.79 | 1.03 | inactive
Ap1g2 (adaptor protein complex AP-1, gamma 2 subunit) | 1 | no change with or without drug | -0.45 | -0.84 | 0.22 | 0.9 | inactive
Tradd (TNFRSF1A-associated via death domain) | 1 | no change with or without drug | 0.67 | 1.01 | 0.11 | 1 | inactive
Creg2 (cellular repressor of E1A-stimulated genes 2) | 1 | no change with or without drug | -0.45 | 0.51 | -0.67 | 0.9 | inactive
Khdrbs3 | 1 | low cell count with doxorubicin only | -2.14 | -1.85 | -1.01 | 0.75 | active
Akr1c13 (aldo-keto reductase family 1, member C13) | 1 | no change with or without drug | 0.22 | -0.17 | 0.45 | 0.96 | inactive
Mapkapk5 (MAP kinase-activated protein kinase 5) | 1 | no change with or without drug | 0.9 | -0.51 | 1.46 | 1.02 | inactive
Ythdf1 (YTH N6-methyladenosine RNA binding protein 1) | 1 | no change with or without drug | -1.35 | 0.84 | -1.8 | 0.82 | inactive
